Measured values: doi:10.1101/180380

B1: BAM2 fused to a YFP fragment for BiFC (receptor, UniProt Q9M2Z1 23-1002)
chain: KPITELHALLSLKSSFTIDEHSPLLTSWNLSTTFCSWTGVTCDVSLRHVTSLDLSGLNLSGTLSSDVAHLPLLQNLSLAANQISGPIPPQISNLYELRHLNLSNNVFNGSFPDELSSGLVNLRVLDLYNNNLTGDLPVSLTNLTQLRHLHLGGNYFSGKIPATYGTWPVLEYLAVSGNELTGKIPPEIGNLTTLRELYIGYYNAFENGLPPEIGNLSELVRFDAANCGLTGEIPPEIGKLQKLDTLFLQVNAFTGTITQELGLISSLKSMDLSNNMFTGEIPTSFSQLKNLTLLNLFRNKLYGAIPEFIGEMPELEVLQLWENNFTGSIPQKLGENGRLVILDLSSNKLTGTLPPNMCSGNRLMTLITLGNFLFGSIPDSLGKCESLTRIRMGENFLNGSIPKELFGLPKLSQVELQDNYLTGELPISGGGVSGDLGQISLSNNQLSGSLPAAIGNLSGVQKLLLDGNKFSGSIPPEIGRLQQLSKLDFSHNLFSGRIAPEISRCKLLTFVDLSRNELSGDIPNELTGMKILNYLNLSRNHLVGSIPVTIASMQSLTSVDFSYNNLSGLVPSTGQFSYFNYTSFVGNSHLCGPYLGPCGKGTHQSHVKPLSATTKLLLVLGLLFCSMVFAIVAIIKARSLRNASEAKAWRLTAFQRLDFTCDDVLDSLKEDNIIGKGGAGIVYKGTMPKGDLVAVKRLATMSHGSSHDHGFNAEIQTLGRIRHRHIVRLLGFCSNHETNLLVYEYMPNGSLGEVLHGKKGGHLHWNTRYKIALEAAKGLCYLHHDCSPLIVHRDVKSNNILLDSNFEAHVADFGLAKFLQDSGTSECMSAIAGSYGYIAPEYAYTLKVDEKSDVYSFGVVLLELITGKKPVGEFGDGVDIVQWVRSMTDSNKDCVLKVIDLRLSSVPVHEVTHVFYVALLCVEEQAVERPTMREVVQILTEIPKIPLSKQQAAESDVTEKAPAINESSPDSGSPPDLLSN
B2: BAM2-GFP (receptor, UniProt Q9M2Z1 23-1002)
chain: B1 chain
B3: kinase domain of BAM1 expressed in Escherichia coli (domain or fragment, UniProt O49545 694-971)
chain: LKEDNIIGKGGAGIVYKGVMPNGDLVAVKRLAAMSRGSSHDHGFNAEIQTLGRIRHRHIVRLLGFCSNHETNLLVYEYMPNGSLGEVLHGKKGGHLHWDTRYKIALEAAKGLCYLHHDCSPLIVHRDVKSNNILLDSNFEAHVADFGLAKFLQDSGTSECMSAIAGSYGYIAPEYAYTLKVDEKSDVYSFGVVLLELVTGRKPVGEFGDGVDIVQWVRKMTDSNKDSVLKVLDPRLSSIPIHEVTHVFYVAMLCVEEQAVERPTMREVVQILTEIPKL
B4: BAM1-GFP from Arabidopsis (BARELY ANY MERISTEM 1) (receptor, UniProt O49545 20-1003)
chain: SRPISEFRALLSLKTSLTGAGDDKNSPLSSWKVSTSFCTWIGVTCDVSRRHVTSLDLSGLNLSGTLSPDVSHLRLLQNLSLAENLISGPIPPEISSLSGLRHLNLSNNVFNGSFPDEISSGLVNLRVLDVYNNNLTGDLPVSVTNLTQLRHLHLGGNYFAGKIPPSYGSWPVIEYLAVSGNELVGKIPPEIGNLTTLRELYIGYYNAFEDGLPPEIGNLSELVRFDGANCGLTGEIPPEIGKLQKLDTLFLQVNVFSGPLTWELGTLSSLKSMDLSNNMFTGEIPASFAELKNLTLLNLFRNKLHGEIPEFIGDLPELEVLQLWENNFTGSIPQKLGENGKLNLVDLSSNKLTGTLPPNMCSGNKLETLITLGNFLFGSIPDSLGKCESLTRIRMGENFLNGSIPKGLFGLPKLTQVELQDNYLSGELPVAGGVSVNLGQISLSNNQLSGPLPPAIGNFTGVQKLLLDGNKFQGPIPSEVGKLQQLSKIDFSHNLFSGRIAPEISRCKLLTFVDLSRNELSGEIPNEITAMKILNYLNLSRNHLVGSIPGSISSMQSLTSLDFSYNNLSGLVPGTGQFSYFNYTSFLGNPDLCGPYLGPCKDGVAKGGHQSHSKGPLSASMKLLLVLGLLVCSIAFAVVAIIKARSLKKASESRAWRLTAFQRLDFTCDDVLDSLKEDNIIGKGGAGIVYKGVMPNGDLVAVKRLAAMSRGSSHDHGFNAEIQTLGRIRHRHIVRLLGFCSNHETNLLVYEYMPNGSLGEVLHGKKGGHLHWDTRYKIALEAAKGLCYLHHDCSPLIVHRDVKSNNILLDSNFEAHVADFGLAKFLQDSGTSECMSAIAGSYGYIAPEYAYTLKVDEKSDVYSFGVVLLELVTGRKPVGEFGDGVDIVQWVRKMTDSNKDSVLKVLDPRLSSIPIHEVTHVFYVAMLCVEEQAVERPTMREVVQILTEIPKLPPSKDQPMTESAPESELSPKSGVQSPPDLLNL
B5: BAM1 from Arabidopsis fused to a YFP fragment for BiFC (receptor, UniProt O49545 20-1003)
chain: B4 chain

Tests used:
[1] = molecular target: C4 fused to a YFP fragment for BiFC (Tomato yellow leaf curl virus); assay: split reporter
[2] = molecular target: C4-3xHA (C4 protein from Tomato yellow leaf curl virus) (Tomato yellow leaf curl virus); assay: co-IP
[3] = molecular target: C4 protein expressed in Escherichia coli (Tomato yellow leaf curl virus); assay: SEC

| Binder | binding [1] | binding [2] | also measured |
| --- | --- | --- | --- |
| B1 | binds | – | – |
| B2 | – | binds | – |
| B3 | – | – | binding [3]: binds |
| B4 | – | binds | – |
| B5 | binds | – | – |

These are yes or no findings as the source states them, for the method shown. A result given as binding can be weak or reduced; the word gives no strength. For some assays here: Binding seen in cells or lysates may run through a third protein. For some assays here: Tags and fused reporters may be left off the sequences shown.
